These are yes or no findings as the source states them, for the method shown. Binding seen in cells or lysates may run through a third protein. Some entries that bind do so weakly or less than the wild type.
Target: mSIN1 subunit of mTORC2 (human (endogenous in MCD cortical tissue)) (UniProt Q9BPZ7)
Assay: co-IP; endogenous proteins in lysate supernatant of human MCD cortical samples; 2 µg anti-WNK1 Ab or anti-mSIN1 Ab, 60 min at room temperature, Dynabeads protein G; western blot with anti-mTOR, anti-WNK1 or anti-SPAK/OSR1; for the mSIN1 IPs slices were pretreated 30 min with DMSO, rapamycin or WNK463 (less co-precipitate with the inhibitors); normal IgG as negative control

Sequences of proteins named here, by UniProt entry; tags and fusion partners are left off.
UniProt Q9BPZ7: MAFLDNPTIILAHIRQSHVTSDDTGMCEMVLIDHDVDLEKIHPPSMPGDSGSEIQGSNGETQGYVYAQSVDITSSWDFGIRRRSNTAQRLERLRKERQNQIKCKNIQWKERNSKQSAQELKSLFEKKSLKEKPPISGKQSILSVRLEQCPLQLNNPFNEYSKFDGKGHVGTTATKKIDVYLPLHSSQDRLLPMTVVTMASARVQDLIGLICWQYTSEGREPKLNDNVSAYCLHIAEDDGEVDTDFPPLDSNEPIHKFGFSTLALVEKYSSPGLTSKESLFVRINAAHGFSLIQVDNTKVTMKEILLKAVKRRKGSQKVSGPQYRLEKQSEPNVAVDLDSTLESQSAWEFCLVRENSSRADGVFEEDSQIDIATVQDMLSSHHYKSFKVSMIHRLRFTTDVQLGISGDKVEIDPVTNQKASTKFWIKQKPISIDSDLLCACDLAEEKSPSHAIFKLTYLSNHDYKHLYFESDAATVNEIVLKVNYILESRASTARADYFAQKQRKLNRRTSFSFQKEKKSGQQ
UniProt Q9H4A3: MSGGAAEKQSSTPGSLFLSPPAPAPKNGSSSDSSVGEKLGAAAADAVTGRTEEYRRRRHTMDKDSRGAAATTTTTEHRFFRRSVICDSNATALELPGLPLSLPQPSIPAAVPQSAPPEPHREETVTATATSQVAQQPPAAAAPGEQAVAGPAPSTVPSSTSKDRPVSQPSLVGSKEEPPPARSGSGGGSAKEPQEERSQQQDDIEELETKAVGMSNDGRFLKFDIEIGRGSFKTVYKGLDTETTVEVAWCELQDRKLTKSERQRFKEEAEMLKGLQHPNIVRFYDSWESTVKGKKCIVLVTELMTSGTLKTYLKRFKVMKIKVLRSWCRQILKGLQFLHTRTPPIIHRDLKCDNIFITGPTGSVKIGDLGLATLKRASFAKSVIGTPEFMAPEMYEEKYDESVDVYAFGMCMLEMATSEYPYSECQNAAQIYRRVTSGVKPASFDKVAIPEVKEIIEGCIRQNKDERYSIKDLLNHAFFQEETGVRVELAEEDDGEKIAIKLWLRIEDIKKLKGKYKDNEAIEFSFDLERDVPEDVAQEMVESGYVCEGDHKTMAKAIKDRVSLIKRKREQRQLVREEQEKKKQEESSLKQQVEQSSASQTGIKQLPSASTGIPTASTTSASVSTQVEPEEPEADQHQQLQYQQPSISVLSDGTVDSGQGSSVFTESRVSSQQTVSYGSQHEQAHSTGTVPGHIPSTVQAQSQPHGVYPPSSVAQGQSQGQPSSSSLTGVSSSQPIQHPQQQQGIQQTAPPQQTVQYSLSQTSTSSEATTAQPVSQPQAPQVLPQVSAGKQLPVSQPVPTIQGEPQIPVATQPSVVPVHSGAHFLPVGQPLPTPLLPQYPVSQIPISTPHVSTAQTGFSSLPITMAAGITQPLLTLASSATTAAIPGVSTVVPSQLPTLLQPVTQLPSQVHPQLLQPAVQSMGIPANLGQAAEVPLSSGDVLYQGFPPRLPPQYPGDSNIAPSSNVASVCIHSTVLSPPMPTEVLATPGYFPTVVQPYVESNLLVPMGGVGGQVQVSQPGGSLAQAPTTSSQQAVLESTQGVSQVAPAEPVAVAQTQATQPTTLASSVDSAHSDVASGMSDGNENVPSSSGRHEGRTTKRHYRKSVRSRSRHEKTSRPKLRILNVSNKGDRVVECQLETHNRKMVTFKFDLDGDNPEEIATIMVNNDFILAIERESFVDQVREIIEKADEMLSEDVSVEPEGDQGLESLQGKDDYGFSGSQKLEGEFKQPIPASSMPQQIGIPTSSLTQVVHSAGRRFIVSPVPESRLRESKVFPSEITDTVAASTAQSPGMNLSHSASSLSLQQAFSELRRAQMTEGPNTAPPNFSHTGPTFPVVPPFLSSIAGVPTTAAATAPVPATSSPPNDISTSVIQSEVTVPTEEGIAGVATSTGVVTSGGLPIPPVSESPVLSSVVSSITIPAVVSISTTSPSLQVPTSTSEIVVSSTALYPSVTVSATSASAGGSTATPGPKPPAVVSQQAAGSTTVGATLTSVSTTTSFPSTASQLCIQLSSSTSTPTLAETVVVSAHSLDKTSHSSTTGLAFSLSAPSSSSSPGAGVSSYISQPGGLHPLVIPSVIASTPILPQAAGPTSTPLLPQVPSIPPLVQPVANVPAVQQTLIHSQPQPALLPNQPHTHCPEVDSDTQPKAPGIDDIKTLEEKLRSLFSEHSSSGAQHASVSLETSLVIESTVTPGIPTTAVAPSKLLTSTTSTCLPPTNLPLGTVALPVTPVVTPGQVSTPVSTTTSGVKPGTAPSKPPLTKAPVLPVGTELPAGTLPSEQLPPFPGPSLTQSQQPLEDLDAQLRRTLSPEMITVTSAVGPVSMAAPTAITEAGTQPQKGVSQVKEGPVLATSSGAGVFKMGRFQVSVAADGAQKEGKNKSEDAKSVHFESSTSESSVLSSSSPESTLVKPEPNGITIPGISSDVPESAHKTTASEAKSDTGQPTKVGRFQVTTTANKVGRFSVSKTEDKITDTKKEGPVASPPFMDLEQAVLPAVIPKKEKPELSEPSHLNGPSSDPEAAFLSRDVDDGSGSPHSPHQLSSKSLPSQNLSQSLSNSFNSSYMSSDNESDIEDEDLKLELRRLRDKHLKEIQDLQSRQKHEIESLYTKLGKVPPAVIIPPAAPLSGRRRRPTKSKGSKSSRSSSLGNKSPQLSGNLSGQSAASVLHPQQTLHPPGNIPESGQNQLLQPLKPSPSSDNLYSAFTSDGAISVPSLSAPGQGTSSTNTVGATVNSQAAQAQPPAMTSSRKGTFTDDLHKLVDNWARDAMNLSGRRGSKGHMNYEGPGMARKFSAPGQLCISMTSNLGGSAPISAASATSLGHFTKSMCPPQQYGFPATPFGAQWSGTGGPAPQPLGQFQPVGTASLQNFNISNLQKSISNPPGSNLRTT

- binding: binds
Substance: WNK1 (from UniProt Q9H4A3 1-2382)
